The series concerns Spodoptera littoralis. The experiment in a line: Insecticidal bioassay screening (castor leaf dip, larval mortality). As to conditions: after 72 hrs of treatment, slope of concentration-mortality (LDP) line. The format is in vivo. The procedure:
Five concentrations (200, 100, 50, 25, 12.5 ppm) were designed for this synthetic compound and the reference Diflubenzuron compound as the dynamic ingredients based on ppm via diluting the commercial formulation.
In this experiment, castor leaves are immersed in each of the previously prepared concentrations of the components for 10 seconds and then left to dry for 60 minutes. Larvae of the second and fourth instars of each checked strain are prepared with treated leaves in gauze-covered glass containers for 72 hrs. An untreated control is made in which leaves are dipped in triton x-100 and distilled water only. Then the preserved leaves were removed & fresh, untreated leaves were provided for 72 hours. Three replicates (10 larvae each) were checked for each concentration. Daily inspection was carried out for all treatments and mortality percentages were recorded 3 days (72 hours) after treatment. The average mortality percentage was corrected employing Abbott's formula. The corrected mortality rate for each of the previously synthesized compounds is statistically calculated according to Finney (1970). Through this rate, the corresponding concentration test lines (LDP lines) are assessed.

Compound `O=C(NC(=S)Nc1cccc2ccccc12)c1ccco1` [Compound 2, N-(Naphthalen-1-ylcarbamothioyl)furan-2-carboxamide] had a Slope (2nd instar larvae) of 0.97 ± 0.35 and a Slope (4th instar larvae) of 0.713 ± 0.39.

(Values after patent publication US11897856B1, “N-(Naphthalen-1-ylcarbamothioyl)furan-2-carboxamide as an eco-friendly insecticidal agent against Spodoptera littoralis (boisd.)” (KING FAISAL UNIVERSITY, priority 2023, dated 2024).)
